Source: patent publication US20240294573A1, “CONSTRAINED PEPTIDES” (TearSolutions, Inc., priority 2019, published 2024)
Some entries share one result that the patent states for a list of compounds.

How the values were obtained:
[1] = Circular dichroism of cysteine disulfide constrained Lacripep acetate salts in citrate buffer (Example 8); assay type: physicochemical; conditions: presence of DPC (10 mM), 10 mM sodium citrate buffer pH 6.5, 0.2 mg/mL, 35° C.
Method: (§1) Cysteine Disulfide Constrained Analogs of Lacripep™ (SEQ ID NO:1) were synthesized with N-terminal acetylation and C-terminal amidation as an acetate salt. The compounds were reconstituted in 10 mM sodium citrate buffer, pH 6.5 for circular dichroism, with or without 10 mM DPC. The resulting citric acid buffered solutions were tested for circular dichroism.
(§2) CD spectra were obtained using the Jasco 810 CD/ORD with Fluorescence Monochrometer in a 1 mm quartz cell from Starna Cells, Inc. Spectra were obtained at 35° C. from 250 nm to 190 nm in continuous scanning mode (scanning speed, 100 nm/min; data pitch, 0.1 nm; bandwidth, 1 nm; response time, 4 s) with a nitrogen flow rate of 100 mL/min. An average of 3 spectra were obtained for each sample (N=3).

[2] = Circular dichroism of alkene constrained (stapled) Lacripep acetate salts in citrate buffer (Example 7); assay type: physicochemical; conditions: presence of 10 mM DPC, 10 mM sodium citrate buffer pH 6.5, 0.2 mg/mL, 35° C.
Method: as §1, with “Alkene” for “Cysteine Disulfide”, “n-DodecylPhosphoCholine (DPC).” for “DPC.”
as §2

Row | Substance | negative CD signal between 200 nm and 230 nm [1] | negative CD signal between 200 nm and 230 nm [2]
1 | Ac-KQF IEN C(S-)SE C(S-)AQ KLL KKF S-NH2 (KQFIENCSECAQKLLKKFS; Ac, NH2, cysteine S-crosslink staple; listed as Homo sapiens) [SEQ ID NO: 70] | −20 to −25 Δε | –
2 | Ac-KQF C(S-)EN C(S-)SE FAQ KLL KKF S-NH2 (KQFCENCSEFAQKLLKKFS; Ac, NH2, cysteine S-crosslink staple; listed as Homo sapiens) [SEQ ID NO: 72] | −20 to −25 Δε | –
3 | Ac-KQFIEN [2-(4-octenyl) alanine]-SEF-[2-(4-pentenyl) alanine]-QKLLKKFS-NH2 (KQFIENASEFAQKLLKKFS; acetyl, amide; hydrocarbon staple, alkenyl alanines; listed as Homo sapiens) [SEQ ID NO: 54] | – | −20 to −30 Δε
4 | Ac-KQFIENGSEF [2-(4-octenyl) alanine]-QKL-[2-(4-pentenyl) alanine]-KKFS—NH2 (KQFIENGSEFAQKLAKKFS; acetyl, amide; hydrocarbon staple, alkenyl alanines; listed as Homo sapiens) [SEQ ID NO: 53] | – | −20 to −30 Δε
